Data from the primary screen of doi:10.1371/journal.pone.0140310, rounded.

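The test systems are human melanoma cell lines, treated with a pair of drugs for 72 h and then stained and imaged. Values are the share of nuclei positive for cleaved PARP as a percentage of the same share in the DMSO control: 100 is the control level, higher means more apoptosis. Every drug was used at one fixed concentration, the higher of two screened. No replicate spread is given; individual values may be noisy. Basal and induced levels differ widely between cell lines.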
This is part of the screen, not chosen by result.
An entry leaves out what has no value listed here.
A dash means that no value is listed here.

First drug in all entries: ruxolitinib, 5 µM, N#CC[C@H](C1CCCC1)n1cc(-c2ncnc3[nH]ccc23)cn1

Drug key:
dorsomorphin: c1cc(-c2cnn3cc(-c4ccc(OCCN5CCCCC5)cc4)cnc23)ccn1 at 2 µM
AZD7762: NC(=O)Nc1cc(-c2cccc(F)c2)sc1C(=O)N[C@H]1CCCNC1 at 0.1 µM
docetaxel: CC(=O)O[C@@]12CO[C@@H]1C[C@H](O)[C@@]1(C)C(=O)[C@H](O)C3=C(C)[C@@H](OC(=O)[C@H](O)[C@@H](NC(=O)OC(C)(C)C)c4ccccc4)C[C@@](O)([C@@H](OC(=O)c4ccccc4)[C@H]21)C3(C)C at 0.0005 µM
VX-702: NC(=O)c1ccc(N(C(N)=O)c2c(F)cccc2F)nc1-c1ccc(F)cc1F at 2 µM
AS-252424: O=C1NC(=O)/C(=C/c2ccc(-c3ccc(F)cc3O)o2)S1 at 5 µM
tozasertib: Cc1cc(Nc2cc(N3CCN(C)CC3)nc(Sc3ccc(NC(=O)C4CC4)cc3)n2)n[nH]1 at 0.03 µM
GSK0660: COC(=O)c1sccc1S(=O)(=O)Nc1ccc(Nc2ccccc2)cc1OC at 5 µM
PD173074: CCN(CC)CCCCNc1ncc2cc(-c3cc(OC)cc(OC)c3)c(NC(=O)NC(C)(C)C)nc2n1 at 0.5 µM
indole-3-carbinol: OCc1c[nH]c2ccccc12 at 4 µM
OSI-906: C[C@]1(O)C[C@@H](c2nc(-c3ccc4ccc(-c5ccccc5)nc4c3)c3c(N)nccn32)C1 at 2 µM
gemcitabine: Nc1ccn([C@@H]2O[C@H](CO)[C@@H](O)C2(F)F)c(=O)n1 at 0.002 µM
perifosine: CCCCCCCCCCCCCCCCCCOP(=O)([O-])OC1CC[N+](C)(C)CC1 at 2 µM
ABT-263: CC1(C)CCC(c2ccc(Cl)cc2)=C(CN2CCN(c3ccc(C(=O)NS(=O)(=O)c4ccc(N[C@H](CCN5CCOCC5)CSc5ccccc5)c(S(=O)(=O)C(F)(F)F)c4)cc3)CC2)C1 at 2 µM
nilutamide: CC1(C)NC(=O)N(c2ccc([N+](=O)[O-])c(C(F)(F)F)c2)C1=O at 5 µM
temozolomide: Cn1nnc2c(C(N)=O)ncn2c1=O at 10 µM
CHIR-265: Cn1c(Nc2ccc(C(F)(F)F)cc2)nc2cc(Oc3ccnc(-c4ncc(C(F)(F)F)[nH]4)c3)ccc21 at 0.4 µM
GSK650394: O=C(O)c1ccc(-c2c[nH]c3ncc(-c4ccccc4)cc23)cc1C1CCCC1 at 0.8 µM
bexarotene: C=C(c1ccc(C(=O)O)cc1)c1cc2c(cc1C)C(C)(C)CCC2(C)C at 10 µM
SNS-032: CC(C)(C)c1cnc(CSc2cnc(NC(=O)C3CCNCC3)s2)o1 at 0.05 µM
TCS401: O=C(O)C(=O)Nc1sc2c(c1C(=O)O)CCNC2 at 8.33 µM
LFM-A13: C/C(O)=C(\C#N)C(=O)Nc1cc(Br)ccc1Br at 10 µM
GW0742: Cc1cc(SCc2sc(-c3ccc(C(F)(F)F)c(F)c3)nc2C)ccc1OCC(=O)O at 10 µM
FH535: Cc1cc([N+](=O)[O-])ccc1NS(=O)(=O)c1cc(Cl)ccc1Cl at 5 µM
enzastaurin: Cn1cc(C2=C(c3cn(C4CCN(Cc5ccccn5)CC4)c4ccccc34)C(=O)NC2=O)c2ccccc21 at 4 µM
IMD-0354: O=C(Nc1cc(C(F)(F)F)cc(C(F)(F)F)c1)c1cc(Cl)ccc1O at 0.08 µM
tipifarnib: Cn1cncc1[C@@](N)(c1ccc(Cl)cc1)c1ccc2c(c1)c(-c1cccc(Cl)c1)cc(=O)n2C at 0.05 µM
selumetinib: Cn1cnc2c(F)c(Nc3ccc(Br)cc3Cl)c(C(=O)NOCCO)cc21 at 0.075 µM
lestaurtinib: C[C@]12O[C@H](C[C@]1(O)CO)n1c3ccccc3c3c4c(c5c6ccccc6n2c5c31)CNC4=O at 0.02 µM
BMS-536924: Cc1cc(N2CCOCC2)cc2[nH]c(-c3c(NC[C@@H](O)c4cccc(Cl)c4)cc[nH]c3=O)nc12 at 1 µM
KU-55933: O=c1cc(-c2cccc3c2Sc2ccccc2S3)oc(N2CCOCC2)c1 at 5 µM
fingolimod: CCCCCCCCc1ccc(CCC(N)(CO)CO)cc1 at 10 µM
crizotinib: C[C@@H](Oc1cc(-c2cnn(C3CCNCC3)c2)cnc1N)c1c(Cl)ccc(F)c1Cl at 1 µM
A-769662: N#Cc1c(O)c2c(-c3ccc(-c4ccccc4O)cc3)csc2[nH]c1=O at 10 µM
embelin: CCCCCCCCCCCC1=C(O)C(=O)C=C(O)C1=O at 6 µM
L-779450: Oc1cc(-c2nc(-c3ccccc3)[nH]c2-c2ccncc2)ccc1Cl at 1 µM
nutlin-3: COc1ccc(C2=N[C@@H](c3ccc(Cl)cc3)[C@@H](c3ccc(Cl)cc3)N2C(=O)N2CCNC(=O)C2)c(OC(C)C)c1 at 0.5 µM
decitabine: Nc1ncn([C@H]2C[C@H](O)[C@@H](CO)O2)c(=O)n1 at 0.5 µM
cediranib: COc1cc2c(Oc3ccc4[nH]c(C)cc4c3F)ncnc2cc1OCCCN1CCCC1 at 2 µM
vatalanib: Clc1ccc(Nc2nnc(Cc3ccncc3)c3ccccc23)cc1 at 10 µM

{"partner": "A-769662", "LB2518-MEL": 188, "WM1716": 148, "WM3619": 103, "RVH-421": 571, "A375": 46.8}
{"partner": "LFM-A13", "LB2518-MEL": 80.3, "WM1716": 168, "WM3619": 118, "RVH-421": 216, "A375": 94.4}
{"partner": "TCS401", "LB2518-MEL": 46.1, "WM1716": 152, "WM3619": 146, "RVH-421": 199, "A375": 36.5}
{"partner": "docetaxel", "LB2518-MEL": 674, "WM1716": 554, "WM3619": 140, "RVH-421": 93.8, "A375": 151}
{"partner": "tipifarnib", "LB2518-MEL": 153, "WM1716": 121, "WM3619": 85.1, "RVH-421": 63.4}
{"partner": "CHIR-265", "LB2518-MEL": 811, "WM1716": 43.4, "WM3619": 149, "RVH-421": 142, "A375": 119}
{"partner": "ABT-263", "LB2518-MEL": 361, "WM1716": 1360, "WM3619": 109, "RVH-421": 50.2, "A375": 338}
{"partner": "L-779450", "LB2518-MEL": 83.6, "WM1716": 51.6, "WM3619": 80.5, "RVH-421": 188, "A375": 73.9}
{"partner": "IMD-0354", "LB2518-MEL": 60.8, "WM1716": 96.4, "WM3619": 125, "RVH-421": 81.1, "A375": 43.1}
{"partner": "lestaurtinib", "LB2518-MEL": 206, "WM1716": 152, "WM3619": 99.9, "RVH-421": 158, "A375": 49.8}
{"partner": "tozasertib", "WM1716": 96.8, "WM3619": 141, "RVH-421": 148, "A375": 29.6}
{"partner": "embelin", "LB2518-MEL": 103, "WM1716": 268, "WM3619": 95.8, "RVH-421": 134, "A375": 108}
{"partner": "gemcitabine", "LB2518-MEL": 298, "WM1716": 351, "WM3619": 164, "RVH-421": 192, "A375": 64.3}
{"partner": "selumetinib", "LB2518-MEL": 471, "WM1716": 164, "WM3619": 125, "RVH-421": 130, "A375": 92.7}
{"partner": "fingolimod", "LB2518-MEL": 66800, "WM1716": 43.9, "WM3619": 4810, "RVH-421": 67.5, "A375": 38.9}
{"partner": "GSK0660", "LB2518-MEL": 35.5, "WM1716": 137, "WM3619": 89.3, "RVH-421": 153, "A375": 65.8}
{"partner": "indole-3-carbinol", "LB2518-MEL": 76.9, "WM1716": 191, "WM3619": 117, "RVH-421": 70.2, "A375": 78.9}
{"partner": "AZD7762", "LB2518-MEL": 169, "WM1716": 455, "WM3619": 333, "RVH-421": 86.5}
{"partner": "AS-252424", "LB2518-MEL": 33.6, "WM1716": 91.9, "WM3619": 106, "RVH-421": 77.1, "A375": 61.1}
{"partner": "FH535", "LB2518-MEL": 116, "WM1716": 156, "WM3619": 124, "RVH-421": 76.2, "A375": 98.8}
{"partner": "OSI-906", "LB2518-MEL": 53.7, "WM1716": 66.5, "WM3619": 114, "RVH-421": 115, "A375": 84.4}
{"partner": "crizotinib", "LB2518-MEL": 232, "WM1716": 172, "WM3619": 113, "RVH-421": 60.3, "A375": 85.8}
{"partner": "decitabine", "LB2518-MEL": 72.7, "WM1716": 137, "WM3619": 119, "RVH-421": 222, "A375": 116}
{"partner": "nilutamide", "LB2518-MEL": 175, "WM1716": 100, "WM3619": 137, "RVH-421": 96.8}
{"partner": "nutlin-3", "LB2518-MEL": 80.6, "WM1716": 102, "WM3619": 142, "RVH-421": 226, "A375": 50.0}
{"partner": "BMS-536924", "LB2518-MEL": 82.6, "WM1716": 89.0, "WM3619": 81.1, "RVH-421": 221}
{"partner": "enzastaurin", "LB2518-MEL": 100, "WM1716": 573, "WM3619": 98.7, "RVH-421": 28.5, "A375": 44.7}
{"partner": "bexarotene", "LB2518-MEL": 55.0, "WM1716": 58.6, "WM3619": 227, "RVH-421": 54.7, "A375": 55.6}
{"partner": "dorsomorphin", "WM1716": 138, "WM3619": 133, "RVH-421": 112, "A375": 84.4}
{"partner": "VX-702", "WM1716": 105, "WM3619": 108, "RVH-421": 62.8, "A375": 7.0}
{"partner": "cediranib", "LB2518-MEL": 24.6, "WM1716": 38.9, "WM3619": 79.2, "RVH-421": 136}
{"partner": "vatalanib", "LB2518-MEL": 139, "WM1716": 235, "WM3619": 181, "RVH-421": 109, "A375": 24.2}
{"partner": "GW0742", "LB2518-MEL": 63.4, "WM1716": 94.8, "WM3619": 97.2, "RVH-421": 36.7, "A375": 157}
{"partner": "perifosine", "LB2518-MEL": 48.5, "WM1716": 140, "WM3619": 97.9, "RVH-421": 320, "A375": 56.4}
{"partner": "GSK650394", "LB2518-MEL": 327, "WM1716": 147, "WM3619": 111, "RVH-421": 148}
{"partner": "temozolomide", "LB2518-MEL": 57.5, "WM1716": 508, "WM3619": 196, "RVH-421": 650, "A375": 36.2}
{"partner": "SNS-032", "LB2518-MEL": 117, "WM1716": 306, "WM3619": 117, "RVH-421": 92.3}
{"partner": "PD173074", "WM1716": 134, "WM3619": 89.0, "RVH-421": 44.9, "A375": 35.9}
{"partner": "KU-55933", "LB2518-MEL": 149, "WM1716": 162, "WM3619": 130, "RVH-421": 201, "A375": 90.6}

Some entries from above, unchanged:

Partner	LB2518-MEL	WM1716	WM3619	RVH-421	A375
dorsomorphin	-	138	133	112	84.4
PD173074	-	134	89.0	44.9	35.9